Results are given in words; binding and its absence hold for the method and conditions named. In cells and extracts the contact can be indirect. A result given as binding can be weak or reduced; the word gives no strength. Where a sequence is shown, tags or fusion partners need not be part of it.

This is an account of results in publication doi:10.1101/2022.09.20.508642.

This assay has as its target T1, STRUBBELIG (SUB), C-terminal fluorescent protein fusion expressed in Arabidopsis (Arabidopsis thaliana) (UniProt Q8RWZ1).
T1 sequence: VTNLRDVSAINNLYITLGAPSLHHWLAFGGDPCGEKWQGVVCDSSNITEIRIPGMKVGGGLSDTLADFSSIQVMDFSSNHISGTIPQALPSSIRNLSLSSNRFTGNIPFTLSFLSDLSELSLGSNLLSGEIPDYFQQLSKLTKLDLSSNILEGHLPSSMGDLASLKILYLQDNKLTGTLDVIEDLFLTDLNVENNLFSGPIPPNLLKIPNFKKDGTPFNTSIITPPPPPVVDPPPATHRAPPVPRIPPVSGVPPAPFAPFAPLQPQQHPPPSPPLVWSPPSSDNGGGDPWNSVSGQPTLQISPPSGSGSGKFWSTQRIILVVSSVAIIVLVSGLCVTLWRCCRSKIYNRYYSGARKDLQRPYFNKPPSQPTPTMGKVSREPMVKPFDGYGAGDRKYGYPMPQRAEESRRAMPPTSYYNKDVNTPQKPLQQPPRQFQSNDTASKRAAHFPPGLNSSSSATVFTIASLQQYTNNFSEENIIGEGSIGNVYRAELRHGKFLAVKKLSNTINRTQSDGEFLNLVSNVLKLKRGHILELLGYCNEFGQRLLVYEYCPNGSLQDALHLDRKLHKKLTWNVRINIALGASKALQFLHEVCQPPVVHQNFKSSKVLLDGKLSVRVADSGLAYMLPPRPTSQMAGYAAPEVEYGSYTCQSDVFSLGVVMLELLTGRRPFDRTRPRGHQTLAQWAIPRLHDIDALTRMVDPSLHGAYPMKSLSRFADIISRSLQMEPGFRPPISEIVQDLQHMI
The assay can be described thus: FRET or BRET.

With “mCherry:QKYdelC2A (QKY with N-terminal deletion of the C2A domain) (Arabidopsis thaliana) (domain or fragment)”, the binding entry is “binds”.
